No constants are given. Whether binding was seen depends on the method and setting. Binding seen in cells or lysates may run through a third protein. These calls come from enrichment with a bait or labelling near it, and not all partners need be listed. Where a sequence is shown, tags or fusion partners need not be part of it.
Target: T1, Flag-FSP1 (Ferroptosis Suppressor Protein 1) (human) (UniProt Q9BRQ8)
T1 sequence: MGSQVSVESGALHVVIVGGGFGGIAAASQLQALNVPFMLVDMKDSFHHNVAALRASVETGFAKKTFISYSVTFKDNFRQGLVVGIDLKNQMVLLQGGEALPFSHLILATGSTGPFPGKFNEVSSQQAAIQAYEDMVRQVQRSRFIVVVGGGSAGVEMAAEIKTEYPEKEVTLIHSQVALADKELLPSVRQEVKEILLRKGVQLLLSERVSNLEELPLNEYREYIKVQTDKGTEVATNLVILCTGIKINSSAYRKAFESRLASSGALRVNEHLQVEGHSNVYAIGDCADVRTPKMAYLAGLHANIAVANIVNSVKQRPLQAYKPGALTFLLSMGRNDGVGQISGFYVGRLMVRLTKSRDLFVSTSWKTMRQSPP
Test: affinity purification with mass spectrometry; immunoprecipitation of Flag-FSP1 from HEK293T cells stably expressing it, mass spectrometry of the immunoprecipitate

By UniProt entry, the sequences of proteins in these tests, tags left out.
UniProt P19474: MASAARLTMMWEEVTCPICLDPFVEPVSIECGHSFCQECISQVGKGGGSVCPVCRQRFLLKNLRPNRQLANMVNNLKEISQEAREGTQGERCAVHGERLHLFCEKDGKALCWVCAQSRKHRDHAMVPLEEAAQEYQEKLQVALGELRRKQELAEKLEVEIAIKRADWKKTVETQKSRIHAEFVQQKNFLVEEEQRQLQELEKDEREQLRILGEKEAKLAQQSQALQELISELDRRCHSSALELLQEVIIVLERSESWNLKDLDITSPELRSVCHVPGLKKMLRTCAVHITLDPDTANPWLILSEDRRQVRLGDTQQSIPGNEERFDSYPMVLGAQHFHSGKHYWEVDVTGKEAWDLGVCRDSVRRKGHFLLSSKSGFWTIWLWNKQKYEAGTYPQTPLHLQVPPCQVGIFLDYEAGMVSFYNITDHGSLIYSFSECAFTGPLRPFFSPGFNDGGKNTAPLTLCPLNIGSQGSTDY

In the case of “TRIM21 (Tripartite Motif-Containing Protein 21), endogenous in HEK293T (from UniProt P19474 1-475)”, the binding is reported as “binds”.

Source: paper PMC10582465
